Measured data: PubChem BioAssay AID602196 (INSERM, 2012)
Screen: 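Modifiers of cisplatin sensitivity in A549 cells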. System: human A549 lung cancer cells. Reagents: siRNA pair against human genes. Duration: 48 h transfection before cisplatin; time from cisplatin to read-out not stated. Challenge: cisplatin at a dose killing half of control-siRNA cells; exact dose and duration not given. Detection: 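Shift in cisplatin death relative to control siRNA, from -50 (all cells die) to +50 (no cells die); siRNAs harmful on their own scored 0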. Direction: two-siRNA summed score (-2 to +2): higher = both siRNAs protect from cisplatin killing; -2 means both sensitise; mean protection from cisplatin (shift in death) and protection from cisplatin (shift in death), siRNA C and protection from cisplatin (shift in death), siRNA D: higher = protection from cisplatin killing. Active means: 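siRNAs harmful alone (LDH or WST-1) get 0; others get +1 for less and -1 for more cisplatin killing; genes are active when the two siRNAs give the same sign, summing to ±2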. Meaning of the calls: active = both siRNAs shift cisplatin killing the same way; inactive = no consistent shift, or siRNA harmful alone.
This is an unselected part of about 23,000 reagents. Of all reagents, 455 (2%) were called active. 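Active includes both protection and sensitisation; some change values fall well beyond the stated -50 to +50 range.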 Unmarked entries are inactive. The record does not give: the amount of reagent.

Gene,two-siRNA summed score (-2 to +2),mean protection from cisplatin (shift in death) (%),"protection from cisplatin (shift in death), siRNA C (%)","protection from cisplatin (shift in death), siRNA D (%)"
RNF146,-1,-14.7,-7.4,-22
PTPRR,0,-16.4,-6.3,-26.5
ABLIM3,-1,4.2,17,-8.7
F13B,0,13.3,-4.6,31.2
LOC441632,1,-2.6,11.1,-16.3
H2BC10,0,9.4,15.3,3.5
CACNA1C,0,2.6,-3.1,8.3
LOC344875,0,12.2,8.6,15.7
ILDR1,0,2.9,-0.1,6
MLLT3,0,2.7,3.3,2.2
RABEP1,0,-9.1,-5.6,-12.6
LOC440674,1,8.2,7.2,9.3
FAM135A,0,13.9,22.8,5
ZNF415,0,-0.4,-9.1,8.3
KLRD1,0,3.7,6.8,0.7
ZNF200,0,3.9,7.2,0.6
KIF2C,1,12.1,37.5,-13.4
WDFY1,-1,-14.7,-25.3,-4
TRAPPC8,1,14.5,23.7,5.2
UTRN,1,13.9,-6.5,34.3
TARBP2,-1,-5.3,7.8,-18.3
LOC146053,0,32,37.2,26.9
TRMO,0,1.4,-6.2,8.9
SRP19,-1,1.8,17.7,-14.1
LOC120105,0,2.1,-6.4,10.5
LRRC3B,0,0.3,-1.6,2.2
LOC441189,0,5.5,5.5,5.5
CNBP,0,9.1,7,11.2
PPIAL4A,0,0.7,-2.8,4.2
PREPL,0,1.4,10.3,-7.4
PI15,0,-0.7,0.3,-1.7
CADPS2,0,1.4,0.7,2.1

Look-ups from above:
Under “protection from cisplatin (shift in death), siRNA D (%)”, RNF146 is entered as -22
Under “mean protection from cisplatin (shift in death) (%)”, PPIAL4A shows 0.7
MLLT3, mean protection from cisplatin (shift in death) (%): 2.7
Under “two-siRNA summed score (-2 to +2)”, CNBP reads 0
For “two-siRNA summed score (-2 to +2)”, SRP19 is entered as -1
For “protection from cisplatin (shift in death), siRNA D (%)”, H2BC10 shows 3.5

The results go on:
Gene,two-siRNA summed score (-2 to +2),mean protection from cisplatin (shift in death) (%),"protection from cisplatin (shift in death), siRNA C (%)","protection from cisplatin (shift in death), siRNA D (%)"
TMEM205,1,18,20.7,15.3
ASGR2,-1,-4.1,-17.3,9.1
CLEC16A,0,13.9,23.5,4.3
SNPH,1,13.9,14.4,13.4
PPIAP58,2 (active),21.2,17.5,24.8
LINC03040,0,2.7,-3,8.5
LOC389124,2 (active),16.3,24.4,8.3
LOC440301,1,24.3,13,35.6
ZBTB24,1,6.3,3.4,9.1
CLPTM1L,0,-3,-15.3,9.3
LOC389182,0,3.5,0.5,6.6
UBE2V1,0,-3.9,-3.9,-3.9
TADA3,0,8.2,16.3,0
BHLHE22,-1,-16.8,-13.7,-19.9
LOC388137,1,13.7,10.4,17.1
GALNT4,0,6.8,5.3,8.3
WDR45,0,14.2,10.7,17.7
LOC388397,0,15.3,18,12.6
CPNE1,0,-12.9,-13,-12.9
OACYLP,0,12.9,14.6,11.2
KIAA1726,0,11.1,15.6,6.5
LINC02610,1,12.3,13.9,10.6
PATL1,0,0.4,3.9,-3
GJB2,0,-7.9,-8.6,-7.2
ZNF577,0,2,-2.8,6.9
